Data: patent US6599541B1, “Composition for treatment of drug resistant bacterial infections and a method of treating drug resistant bacterial infections” (priority 1999, dated 2003)
Values after ≈ are worked out from the molar mass of the structure shown. Like-named read-outs stand apart in the source and are kept apart here.

Tested on: Escherichia coli
Assay: Broth Macro Dilution Test, MIC and MBC
Assay type: cell-based
Settings: resistant to Ciprofloxacin, antibiotic alone, read-out: minimum inhibitory concentration (MIC)
Source text: This was done by estimation of the Minimum Inhibitory Concentration (MIC) and Minimum Bactericidal Concentration (MBC) on the selected isolates by a Broth Macro Dilution Test.
While conducting these tests, the guidelines given by the National committee of Clinical Laboratory Standards 1995 protocols were employed. Cation Supplemented Mueller Hinton Broth was used as medium for all organisms excepting for β haemolytic streptococci for which, Todd Hewit's Broth was used as medium.
The following concentrations of antibiotics were tested to determine MIC and MBC.
A minimum inhibitory concentration is the lowest level of antibiotic needed to cause an inhibition to bacterial growth in culture medium whereas, the minimum bactericidal concentration is the lowest concentration of antibiotic to achieve a 100% killing of bacteria. Thus, these two values are the practical indices of intensity of bacterial resistance to a given antibiotic. On the other hand, a break-even point of any antibiotic indicates the attainable blood levels after an administration of full dose, in human/animal body. Thus, this point indicates the practical dosage of administering any given antibiotic effectively and beyond this point, even if an antibiotic is found to act effectively in experimental situation—such dose cannot be administered in a clinical situation.

Molecule `O=C(O)c1cn(C2CC2)c2cc(N3CCNCC3)c(F)cc2c1=O` [Ciprofloxacin] has an MIC (Example 1: isolate from wound infection) of 8 µg/mL (≈ 24.1 µM) and an MIC (Example 2: isolate from endotracheal catheter tip culture) of 32 µg/mL (≈ 96.6 µM).
